Results are given in words; binding and its absence hold for the method and conditions named. In cells and extracts the contact can be indirect. Some entries that bind do so weakly or less than the wild type.
How the values were obtained:
[1] = target: Ubiquitin specific protease 7 (USP7), endogenous in DU145 cells (human (endogenous in DU145)) (UniProt Q93009); test: co-IP; endogenous proteins, DU145 lysate in RIPA buffer; PLK1 or USP7 antibody at 4 °C for 12 h, protein A/G magnetic beads; immunoblot
[2] = target: Polo-like kinase 1 (PLK1), endogenous in DU145 cells (human (endogenous in DU145)) (UniProt P53350); test: as above
[3] = target: GST-PLK1(AA) (UniProt P53350); test: pull-down; GST fusion proteins on glutathione-sepharose resins incubated with DU145 cell lysates at 4 °C for 12 h, washed four times; blot with anti-USP7; only the target purified
[4] = target: GST-PLK1(FL) (UniProt P53350); test: as above

Sequences of proteins named here, by UniProt entry; tags and fusion partners are left off.
UniProt Q93009: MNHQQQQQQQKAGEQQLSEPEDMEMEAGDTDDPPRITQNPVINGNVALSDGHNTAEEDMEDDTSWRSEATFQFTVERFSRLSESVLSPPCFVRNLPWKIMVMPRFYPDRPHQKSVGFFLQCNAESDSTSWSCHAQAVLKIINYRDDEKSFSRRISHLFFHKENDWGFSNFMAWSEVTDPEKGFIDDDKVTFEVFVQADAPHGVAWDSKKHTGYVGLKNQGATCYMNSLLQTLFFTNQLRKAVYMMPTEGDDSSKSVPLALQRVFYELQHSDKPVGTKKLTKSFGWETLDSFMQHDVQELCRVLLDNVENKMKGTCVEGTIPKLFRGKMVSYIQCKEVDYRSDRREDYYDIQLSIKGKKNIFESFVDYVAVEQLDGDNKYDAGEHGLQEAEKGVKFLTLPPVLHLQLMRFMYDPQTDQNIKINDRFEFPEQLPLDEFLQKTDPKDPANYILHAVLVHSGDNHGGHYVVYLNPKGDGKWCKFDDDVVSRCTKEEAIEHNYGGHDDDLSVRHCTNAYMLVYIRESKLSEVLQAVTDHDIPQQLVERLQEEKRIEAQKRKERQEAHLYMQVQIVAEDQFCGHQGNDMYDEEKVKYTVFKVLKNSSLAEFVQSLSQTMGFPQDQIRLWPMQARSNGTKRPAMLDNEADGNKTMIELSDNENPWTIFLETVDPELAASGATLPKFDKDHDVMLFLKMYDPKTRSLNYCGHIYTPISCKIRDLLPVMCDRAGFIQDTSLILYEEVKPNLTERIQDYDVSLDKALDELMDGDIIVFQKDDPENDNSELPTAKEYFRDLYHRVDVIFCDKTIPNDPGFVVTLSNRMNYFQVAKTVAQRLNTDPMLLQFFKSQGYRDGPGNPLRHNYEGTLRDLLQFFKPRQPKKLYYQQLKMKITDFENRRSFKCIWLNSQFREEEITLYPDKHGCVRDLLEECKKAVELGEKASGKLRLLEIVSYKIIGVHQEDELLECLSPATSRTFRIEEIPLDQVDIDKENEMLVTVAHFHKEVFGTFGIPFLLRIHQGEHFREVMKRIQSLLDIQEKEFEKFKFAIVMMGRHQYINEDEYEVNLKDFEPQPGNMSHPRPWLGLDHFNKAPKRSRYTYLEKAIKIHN

Polo-like kinase 1 (PLK1), endogenous in DU145 cells (from UniProt P53350 1-603) (enzyme)
binding [1]: binds

Ubiquitin specific protease 7 (USP7), endogenous in DU145 cells (from UniProt Q93009 1-1102) (enzyme)
binding [2]: binds | binding [3]: no binding | binding [4]: binds

From PMC6858727
